About 760 (0.19%) of roughly 390,000 compounds were called active. Calls come from the whole dose curve; as a rule, active = well fitted inhibition curve with a large enough effect; inconclusive = small, poorly fitted or top-dose-only effect; inactive = flat fitted curve, though single readings scatter. The inconclusive results got no clear call from the source. Potencies beside an inconclusive call are fits to weak or partial responses and may not hold up.
Assay: qHTS for Inhibitors of Vif-A3F Interactions: qHTS; note: nearly all actives have a fitted effect of over 65% in size
Conditions: HeLa A3F-eYFP + Vif (tagged APOBEC3F with the HIV-1 protein that degrades it), YFP fluorescence increase; series mostly up to 46.1 µM
Description: The recent discovery and characterization of host restriction factors, which provide a potent defense to invading retroviruses, has provided new targets for antiviral drug development. APOBEC3G (A3G) and APOBEC3F (A3F) are potent cytidine deaminases that block HIV-1 replication; HIV-1 expresses the Vif protein, which counteracts A3G and A3F by binding to them and inducing their proteasomal degradation. The Vif-A3G and Vif-A3F interactions provide two potential targets for development of small molecules which can interfere with the ability of Vif to degrade A3G or A3F. […] To identify inhibitors that can interfere with Vif mediated degradation of A3G and A3F, we have developed Hela cell lines that stably express A3G or A3F tagged with eYFP at the C-terminal end (A3G-eYFP or A3F-eYFP, respectively) and Vif. In the absence of an inhibitor, Vif induces degradation of A3G-eYFP and A3F-eYFP, and the cells are not fluorescent. In the presence of an inhibitor, it is expected that Vif will be unable to degrade A3G-eYFP and/or A3F-eYFP, resulting in an increase in yellow fluorescence. In this assays Vif A3F was screened against the Molecular Library Small Molecule Repository (MLSMR). NIH Chemical Genomics Center [NCGC] NIH Molecular Libraries Probe Centers Network [MLPCN] MLPCN Grant: MH093245 Assay Submitter (PI): Vinay Pathak, National Cancer Institute
5 uL of 700 cells/well of A3F-YFP cells are dispensed into black, clear bottom plates. The plates are incubated overnight at 37 deg C. 23 nL of compounds are added by pintool. The plates are incubated overnight at 37 deg C and then read on the TTP Acumen (Ex 488/ Em 500-530).
Potency is the fitted concentration of half-maximal effect.

For `COc1cc(/C=C2\C(=N)N3N=C(S(C)(=O)=O)SC3=NC2=O)ccc1OC(=O)c1cccs1`, which Potency is on record?
Its Potency is inconclusive: 11.2 µM [inhibitor, partial curve, poor fit].

With `COc1cc(/C=C2/C(=O)NN(c3ccc(Cl)cc3)C2=O)cc(Br)c1O` as the compound, how does the Potency read?
Its Potency is inconclusive: 12.6 µM [inhibitor, partial curve, poor fit].

With `Cc1cc(C)cc(-n2cccc2/C=C2/C(=N)N3C(=NC2=O)SN=C3S(C)(=O)=O)c1` as the compound, how does the Potency read?
Its Potency is inconclusive: 35.5 µM [inhibitor, single point].

For `Cc1cc(N2C(=O)C(O)=C(C(=O)c3cc4ccccc4o3)C2c2cccc(Br)c2)no1` (configuration not stated), which Potency is on record?
The Potency was inconclusive: 11.2 µM [inhibitor, partial curve, poor fit].

With `Cc1cccc(S(=O)(=O)Nc2nc3ccccc3nc2Nc2cccc(C(=O)O)c2)c1` as the compound, how does the Potency read?
The Potency was inconclusive: 20 µM [inhibitor, single point].

For `CS(=O)(=O)C1=NSC2=NC(=O)/C(=C\c3ccc(OC(=O)c4ccco4)c(Br)c3)C(=N)N21`, which Potency is on record?
Its Potency is inconclusive: 35.5 µM [inhibitor, single point].

Which Potency does the source give for `CCOc1cc(/C=C2/C(=N)N3C(=NC2=O)SN=C3S(=O)(=O)CC)ccc1OC(=O)c1ccco1` here?
Its Potency is inconclusive: 11.2 µM [inhibitor, partial curve, poor fit].
